The target in this data set is tRNA guanine transglycosylase (TGT) (Escherichia coli) (UniProt P0A847). Kind of data set: activity assay. The note with it: purified recombinant protein.

By UniProt entry, the sequences of proteins in these tests, tags left out. Where a name states a change or a piece, a line headed by the entry shows the natural chain unless it says otherwise.
UniProt P0A847: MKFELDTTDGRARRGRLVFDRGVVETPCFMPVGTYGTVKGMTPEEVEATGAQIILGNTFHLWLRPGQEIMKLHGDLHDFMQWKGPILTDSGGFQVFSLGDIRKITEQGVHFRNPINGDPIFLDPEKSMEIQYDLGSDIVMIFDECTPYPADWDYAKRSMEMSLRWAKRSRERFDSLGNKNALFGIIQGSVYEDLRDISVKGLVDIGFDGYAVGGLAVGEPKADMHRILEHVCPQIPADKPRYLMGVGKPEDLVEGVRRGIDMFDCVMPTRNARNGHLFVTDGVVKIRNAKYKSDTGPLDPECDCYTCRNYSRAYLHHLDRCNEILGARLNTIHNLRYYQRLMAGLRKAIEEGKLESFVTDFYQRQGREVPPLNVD

No signal at the amounts used counts as a negative. Construct, isoform or probe ends are uncertain for at least one entry.

As for GCAGACUCUAAAUCUGC [ECY-A1ΔC], the “activity on this sequence” value (no PreQ1-TO incorporation detected by LC/MS, 20 mM MgCl2, 37 C, variant of ECY-A1) is reported as “not active”. Turning to “GGGAAUAAUUUUGUUUAACUUUAAGAAGGAGAUAUAAUGGUGAGCAAGGGCGAGGAGGAUAACAUGGCCAUCAUCAAGGAGUUCAUGCGCUUCAAGGUGCACAUGGAGGGCUCCGUGAACGGCCACGAGUUCGAGAUCGAGGGCGAGGGCGAGGGCCGCCCCUACGAGGGCACCCAGACCGCCAAGCUGAAGGUGACCAAGGGUGGCCCCCUGCCCUUCGCCUGGGACAUCCUGUCCCCUCAGUUCAUGUACGGCUCCAAGGCCUACGUGAAGCACCCCGCCGACAUCCCCGACUACUUGAAGCUGUCCUUCCCCGAGGGCUUCAAGUGGGAGCGCGUGAUGAACUUCGAGGACGGCGGCGUGGUGACCGUGACCCAGGACUCCUCCCUGCAGGACGGCGAGUUCAUCUACAAGGUGAAGCUGCGCGGCACCAACUUCCCCUCCGACGGCCCCGUAAUGCAGAAGAAGACCAUGGGCUGGGAGGCCUCCUCCGAGCGGAUGUACCCCGAGGACGGCGCCCUGAAGGGCGAGAUCAAGCAGAGGCUGAAGCUGAAGGACGGCGGCCACUACGACGCUGAGGUCAAGACCACCUACAAGGCCAAGAAGCCCGUGCAGCUGCCCGGCGCCUACAACGUCAACAUCAAGUUGGACAUCACCUCCCACAACGAGGACUACACCAUCGUGGAACAGUACGAACGCGCCGAGGGCCGCCACUCCACCGGCGGCAUGGACGAGCUGUACAAGUAACCCCAUGUAUCUAAAUCAGCACCCAUCAUUUUCAUAUCCCCGCAGACUCUAAAUCUGCCCCCAUGCGCAGACUCUAAAUCUGCCCCCAUGCGCAGACUCUAAAUCUGCCCCCAUGCGCAGACUCUAAAUCUGCCCCCAUGCGCAGACUCUAAAUCUGCCCCCAUGCGCAGACUCUAAAUCUGCCCCCAUGCGCAGACUCUAAAUCUGCCCCCAUGCGCAGACUCUAAAUCUGCCCCCAUGCGCAGACUCUAAAUCUGCCCCCAUGUAUCUAAAUCAGCACCCAUCAUUUUCAUAUCCCCCGAAAGGCGGGCUUUUCUGUGUCUCGAG [mCherry-TAGΔC transcript]”, the “activity on this sequence” value (negligible labeling with PreQ1-BODIPY and PreQ1-TO, no pull-down after PreQ1-biotin, variant of mCherry-TAG transcript) was “not active”.

With “GGGAAUAAUUUUGUUUAACUUUAAGAAGGAGAUAUAAUGGUGAGCAAGGGCGAGGAGGAUAACAUGGCCAUCAUCAAGGAGUUCAUGCGCUUCAAGGUGCACAUGGAGGGCUCCGUGAACGGCCACGAGUUCGAGAUCGAGGGCGAGGGCGAGGGCCGCCCCUACGAGGGCACCCAGACCGCCAAGCUGAAGGUGACCAAGGGUGGCCCCCUGCCCUUCGCCUGGGACAUCCUGUCCCCUCAGUUCAUGUACGGCUCCAAGGCCUACGUGAAGCACCCCGCCGACAUCCCCGACUACUUGAAGCUGUCCUUCCCCGAGGGCUUCAAGUGGGAGCGCGUGAUGAACUUCGAGGACGGCGGCGUGGUGACCGUGACCCAGGACUCCUCCCUGCAGGACGGCGAGUUCAUCUACAAGGUGAAGCUGCGCGGCACCAACUUCCCCUCCGACGGCCCCGUAAUGCAGAAGAAGACCAUGGGCUGGGAGGCCUCCUCCGAGCGGAUGUACCCCGAGGACGGCGCCCUGAAGGGCGAGAUCAAGCAGAGGCUGAAGCUGAAGGACGGCGGCCACUACGACGCUGAGGUCAAGACCACCUACAAGGCCAAGAAGCCCGUGCAGCUGCCCGGCGCCUACAACGUCAACAUCAAGUUGGACAUCACCUCCCACAACGAGGACUACACCAUCGUGGAACAGUACGAACGCGCCGAGGGCCGCCACUCCACCGGCGGCAUGGACGAGCUGUACAAGUAACCCCAUGUAUCUAAAUCAGCACCCAUCAUUUUCAUAUCCCCGCAGACUGUAAAUCUGCCCCCAUGUAUCUAAAUCAGCACCCAUCAUUUUCAUAUCCCCCGAAAGGCGGGCUUUUCUGUGUCUCGAG [mCherry-TAG transcript]”, for the setting “PreQ1-BODIPY, Cy7, TO and biotin labeling, denaturing PAGE and fluorescence, 20 mM MgCl2”, the “activity on this sequence” value was “active”.

The values above are taken from US20180148764.
